PubChem BioAssay AID1508597 – Cure First, 2020

Test: 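Survival screen with siRNA in ovarian cancer cells derived from patients, with or without rucaparib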 (primary screen)
Cells: human ovarian carcinoma lines grown from tumours: OCI-P5x (papillary serous) and OCI-C5x (clear cell)
Knock-down reagent: siRNA pool against human genes, 1.25 pmol siRNA per well
Timing: 72 h or 96 h, depending on the cell culture
Treatment: rucaparib 20 µM (about IC30) or vehicle, present until read-out
Read-out: 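Luminescent ATP-based viability assay read 72 or 96 h after transfection, depending on culture, given as normalised percent viability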
Reading the numbers: viability, normalised: higher = more viable cells remaining
Rule for the call: 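Active when normalised viability falls below 80 percent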
Calls: active = viability under 80%; inactive = viability 80% or more
This is a random part of about 2,100 deposited reagents. 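Calls flag viability under 80% in either arm, not effects specific to rucaparib; the reference for percent is not stated.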 A number with no mark means an inactive call. The record does not give: the 100% reference.

With SH3KBP1 [SID405526464], rucaparib or vehicle Rucaparib, cell line OCI-C5x (clear cell), technical replicate 1, what was measured?
viability, normalised (%): 71.5 (active)

Which result is listed for SH3KBP1 [SID405526464], rucaparib or vehicle Rucaparib, cell line OCI-C5x (clear cell), technical replicate 2?
viability, normalised (%): 68.4 (active)

What did the screen give for SH3KBP1 [SID405526464], rucaparib or vehicle Rucaparib, cell line OCI-C5x (clear cell), technical replicate 3?
viability, normalised (%): 65.2 (active)

For SH3KBP1 [SID405526464], rucaparib or vehicle Rucaparib, cell line OCI-P5x (serous), technical replicate 1, what does the deposit list?
viability, normalised (%): 58.6 (active)

Which result is listed for SH3KBP1 [SID405526464], rucaparib or vehicle Rucaparib, cell line OCI-P5x (serous), technical replicate 2?
viability, normalised (%): 83.6

What did the screen give for SH3KBP1 [SID405526464], rucaparib or vehicle Rucaparib, cell line OCI-P5x (serous), technical replicate 3?
viability, normalised (%): 83.7

What is on record for SH3KBP1 [SID405526464], rucaparib or vehicle Vehicle, cell line OCI-C5x (clear cell), technical replicate 1?
viability, normalised (%): 56.5 (active)

With SH3KBP1 [SID405526464], rucaparib or vehicle Vehicle, cell line OCI-C5x (clear cell), technical replicate 2, what was measured?
viability, normalised (%): 68.8 (active)

What is on record for SH3KBP1 [SID405526464], rucaparib or vehicle Vehicle, cell line OCI-C5x (clear cell), technical replicate 3?
viability, normalised (%): 63.3 (active)

For SH3KBP1 [SID405526464], rucaparib or vehicle Vehicle, cell line OCI-P5x (serous), technical replicate 1, what does the deposit list?
viability, normalised (%): 70 (active)

Which result is listed for SH3KBP1 [SID405526464], rucaparib or vehicle Vehicle, cell line OCI-P5x (serous), technical replicate 2?
viability, normalised (%): 67.3 (active)

How did the screen score SH3KBP1 [SID405526464], rucaparib or vehicle Vehicle, cell line OCI-P5x (serous), technical replicate 3?
viability, normalised (%): 89.8
